Data from the ROBIN nucleic acid binder screens, doi:10.1002/anie.202211358.

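The test is a small-molecule microarray: each compound is printed twice on a reactive slide, and binding shows as fluorescence of the labelled oligonucleotide after washing. For the PreQ1, TPP and SAM-II riboswitches the laboratory earlier reported (doi:10.1038/s41467-019-09493-3) 1 µM RNA, 2 h, and a rule that included a mean Z-score above 3 (spot signal-to-noise against the whole library), a score well above that on a control array, and duplicate spots agreeing (coefficient of variation under 100). The data file gives only the calls; its cut-offs may differ, and compounds hitting several targets are kept. These are primary screening calls, not affinities; a compound without a hit may have attached poorly or may still bind in solution.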 “hit” means called a hit, “no hit” means screened and not called a hit. The compounds are a random part of those screened.

Oligonucleotides screened, 5′ to 3′:
PreQ1: PreQ1 riboswitch RNA pseudoknot, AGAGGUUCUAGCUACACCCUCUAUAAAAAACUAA. From B. subtilis. Hit rate about 0.7% of about 24,000 compounds.
TPP: TPP riboswitch RNA three-way junction, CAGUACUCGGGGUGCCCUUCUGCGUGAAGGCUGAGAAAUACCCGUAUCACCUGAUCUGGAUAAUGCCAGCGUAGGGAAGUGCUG. Hit rate about 0.7% of about 24,000 compounds.

structure: CN1CCN(c2nc3c(N)ncn(CC(O)CO)c-3n2)CC1 (centres undefined)
PreQ1: no hit
TPP: no hit

structure: CCC1(C)CC(CCNCc2ccccc2)(C(C)C)CCO1 (centres undefined)
PreQ1: no hit
TPP: no hit

structure: CCOC(=O)C1CCN(c2c(Nc3cc(C)cc(C)c3)c(=O)c2=O)CC1
PreQ1: no hit
TPP: no hit

structure: Cc1ccc(NC(=S)NC(=O)c2ccccc2)cc1NC(=S)NC(=O)c1ccccc1
PreQ1: no hit
TPP: no hit

structure: Cc1nc(CCNC(=O)CC2COCCN2)nc2c1CCC2 (centres undefined)
PreQ1: no hit
TPP: no hit

structure: COc1ccc(OC)c(C2C(C(=O)c3ccccc3)=C(O)C(=O)N2CC(C)O)c1 (centres undefined)
PreQ1: no hit
TPP: no hit

structure: CCc1nc(C)ccc1OCC(=O)N1CCNCC1C(=O)NC1CC1 (centres undefined)
PreQ1: no hit
TPP: no hit

structure: C[C@@H](CN1CC(=O)NC(=O)C1)N1CC(=O)NC(=O)C1
PreQ1: no hit
TPP: no hit

structure: O=C(NCCc1ccccc1)c1nn(-c2ccc(F)cc2)nc1CO
PreQ1: no hit
TPP: hit

structure: COCCNc1ncccc1-c1nc(-c2ccccc2C)no1
PreQ1: no hit
TPP: no hit

structure: Cn1c(=O)[nH]c(=O)c2c1nc1n(CCCCO)c(-c3ccccc3)cn21
PreQ1: no hit
TPP: no hit

structure: COc1ccc(-c2noc(-c3nnn(-c4ccc(F)cc4)c3N)n2)cc1
PreQ1: no hit
TPP: no hit

structure: CCCCOc1ccc(C(=O)c2c(N)c(C(=O)Nc3cccc(OC)c3)c3ccccn23)cc1
PreQ1: no hit
TPP: no hit

structure: O=C1Nc2ccc(I)cc2C1=Cc1cc(Br)c(O)c(Br)c1
PreQ1: no hit
TPP: no hit

structure: O=S1(=O)C[C@H](NCCc2ccc(F)cc2)[C@@H](S(=O)(=O)c2ccc(F)cc2)C1
PreQ1: no hit
TPP: no hit

structure: N#Cc1nc(-c2ccc(S(=O)(=O)N3CCCCCC3)cc2)oc1NC1CC1
PreQ1: no hit
TPP: no hit

structure: Clc1ccc(-c2cn(CCNc3ccccc3)nn2)cn1
PreQ1: no hit
TPP: no hit

structure: Cc1nc2ccccc2n1CCC(=O)N1C[C@@H](CN2CCOCC2)[C@@H](CO)C1
PreQ1: no hit
TPP: no hit

structure: CCOc1ccc(-c2noc(-c3nnn(-c4cccc(Cl)c4C)c3N)n2)cc1
PreQ1: hit
TPP: hit

structure: OC[C@]12COc3ccccc3[C@H]1CN(Cc1ncccn1)C2
PreQ1: no hit
TPP: no hit

structure: CC(=O)Nc1cc(NC(C)=O)ncn1
PreQ1: no hit
TPP: no hit

structure: Cc1c(C(=O)NN=Cc2c[nH]c3ccccc23)nnn1-c1nonc1N
PreQ1: no hit
TPP: no hit

structure: Cc1cnc(Nc2ccc(OCCN3CCCC3)cc2)nc1Nc1cccc(S(=O)(=O)NC(C)(C)C)c1
PreQ1: no hit
TPP: no hit

Once more, the final 2:

* Cc1c(C(=O)NN=Cc2c[nH]c3ccccc23)nnn1-c1nonc1N : PreQ1: no hit; TPP: no hit
* Cc1cnc(Nc2ccc(OCCN3CCCC3)cc2)nc1Nc1cccc(S(=O)(=O)NC(C)(C)C)c1 : PreQ1: no hit; TPP: no hit